Results are given in words; binding and its absence hold for the method and conditions named.
Biological target: Native human Granzyme A (human) (UniProt P12544)
Experiment: reducing SDS gel electrophoresis (silver stain and western blot); purified GzmA run under reducing conditions; both purified

B1: Native human Granzyme A (enzyme, UniProt P12544 29-262, looked up)
chain: IIGGNEVTPHSRPYMVLLSLDRKTICAGALIAKDWVLTAAHCNLNKRSQVILGAHSITREEPTKQIMLVKKEFPYPCYDPATREGDLKLLQLMEKAKINKYVTILHLPKKGDDVKPGTMCQVAGWGRTHNSASWSDTLREVNITIIDRKVCNDRNHYNFNPVIGMNMVCAGSLRGGRDSCNGDSGSPLLCEGVFRGVTSFGLENKCGDPRGPGVYILLSKKHLNWIIMTIKGAV
notes: Granzyme A (GzmA), native human protein, commercially obtained; Some monomer at ~25 kDa is seen beside the homodimer; also called NhGzmA; native GzmA; source: bought: TheraTest (Lombard, IL)
Question: Which binding does the source give for B1 here?
Answer: no binding (condition: under reducing conditions)
